Record: PubChem BioAssay AID504764 (Drosophila RNAi Screening Center, 2011)

- Screen: 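Genome-wide screen for regulators of Notch-driven gene expression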 (primary screen)
- System: Drosophila Kc167 cells
- Reagents: long dsRNA against Drosophila genes
- Time to read-out: about 5 days (4 days dsRNA, then 24 h after transfection)
- Challenge: transfection of constitutively active membrane-tethered Notch lacking the extracellular domain, read 24 h later
- Detection: 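Light from a Notch-responsive E(spl)m3 luciferase reporter under active Notch, with control-promoter and no-Notch reporter wells to normalise; raw counts from paired wells a and b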
- Direction: induced reporter light, run 1, well a and induced reporter light, run 1, well b: higher = more light from the Notch target reporter with active Notch; control promoter light, run 1, well a and control promoter light, run 1, well b: higher = more light from the viral control promoter (cell number, transfection, viability); uninduced reporter light, run 1, well a: higher = more light from the Notch target reporter without active Notch
- Rule for the call: 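Wells with low control signal or poorly matching duplicates excluded; duplicates averaged; per source plate, z beyond ±2 for induced/control log2 ratio or beyond ±1.8 for induced/uninduced marks a hit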
- Meaning of the calls: active = modifier hit (raised or lowered Notch signal); inactive = not a hit
In all, the deposit lists about 22,000 reagents; this is an unselected part of those with a known target gene and a result. Of all reagents, 403 (1.9%) were called active. 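Unnormalised raw counts per well; ratio z-scores behind the hit calls and whether each hit raises or lowers signal are not deposited.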 The numbers tell different reagents against one gene apart. Names joined by + are all predicted targets of the reagent. The record does not give: the amount of reagent.

| target | dsRNA no. | induced reporter light, run 1, well a | induced reporter light, run 1, well b | control promoter light, run 1, well a | control promoter light, run 1, well b | uninduced reporter light, run 1, well a | call |
| --- | --- | --- | --- | --- | --- | --- | --- |
| CG3345 | 1 | 1.66e5 | 1.73e5 | 2.03e5 | 2.06e5 | 15782 | inactive |
| CG8476 | 1 | 2.54e5 | 2.29e5 | 2.43e5 | 1.98e5 | 16638 | inactive |
| CG15535 | 1 | 1.39e5 | 1.48e5 | 1.41e5 | 1.29e5 | 12030 | active |
| CG33169 | 1 | 1.26e5 | 1.18e5 | 1.16e5 | 94080 | 5580 | inactive |
| CG12868 | 1 | 1.08e5 | 1.25e5 | 1.89e5 | 1.47e5 | 10385 | inactive |
| Reps (RALBP1 associated Eps domain containing) | 1 | 1.25e5 | 1.46e5 | 69675 | 81590 | 18810 | inactive |
| CG7840 | 1 | 60805 | 70600 | 54970 | 60035 | 3990 | inactive |
| CG5104 | 1 | 1.49e5 | 1.03e5 | 97540 | 93725 | 7075 | inactive |
| Obp57e (Odorant-binding protein 57e) | 1 | 93605 | 96625 | 1.07e5 | 74835 | 8520 | inactive |
| SiaT (Sialyltransferase) | 1 | 1.26e5 | 1.24e5 | 1.42e5 | 1.42e5 | 9485 | inactive |
| GAA1 (Glycosylphosphatidylinositol anchor attachment 1) | 1 | 1.71e5 | 1.77e5 | 1.94e5 | 1.67e5 | 11470 | inactive |

Taken from above.
Entry for CG33169 under “induced reporter light, run 1, well a”: 1.26e5
Result of SiaT (Sialyltransferase) under “control promoter light, run 1, well b”: 1.42e5
For “uninduced reporter light, run 1, well a”, CG12868 is entered as 10385
CG5104, induced reporter light, run 1, well a = 1.49e5
Under “induced reporter light, run 1, well b”, Obp57e (Odorant-binding protein 57e) shows 96625
Under “induced reporter light, run 1, well a”, CG7840 is entered as 60805

The listing continues.
| target | dsRNA no. | induced reporter light, run 1, well a | induced reporter light, run 1, well b | control promoter light, run 1, well a | control promoter light, run 1, well b | uninduced reporter light, run 1, well a | call |
| --- | --- | --- | --- | --- | --- | --- | --- |
| Ciao1 | 1 | 1.93e5 | 1.73e5 | 1.39e5 | 1.61e5 | 12600 | inactive |
| Elp1 (Elongator complex protein 1) | 1 | 1.04e5 | 1.24e5 | 92635 | 76810 | 10110 | inactive |
| CG13082 | 1 | 22840 | 24040 | 24875 | 17250 | 1410 | inactive |
| CG9592 | 1 | 1.47e5 | 1.62e5 | 2.45e5 | 2.50e5 | 8175 | inactive |
| Ide (Insulin degrading metalloproteinase) | 1 | 1.37e5 | 1.08e5 | 78785 | 1.05e5 | 10150 | inactive |
| CG33272 | 1 | 1.95e5 | 1.71e5 | 1.22e5 | 1.04e5 | 16020 | inactive |
| Arms (Ankyrin repeat-rich membrane spanning) | 1 | 68990 | 83695 | 91815 | 70520 | 7250 | inactive |
| Arms (Ankyrin repeat-rich membrane spanning) | 2 | 67485 | 65530 | 66770 | 67125 | 7760 | inactive |
| Arms (Ankyrin repeat-rich membrane spanning) | 3 | 1.79e5 | 1.61e5 | 1.28e5 | 1.27e5 | 13495 | inactive |
| Arms (Ankyrin repeat-rich membrane spanning) | 4 | 39110 | 29020 | 15728 | 25075 | 4100 | inactive |
| CG12729 | 1 | 1.71e5 | 1.57e5 | 3.47e5 | 2.72e5 | 11585 | inactive |
| Mtr3 | 1 | 43535 | 30925 | 28615 | 24685 | 4428 | inactive |
| GATAe | 1 | 1.15e5 | 89565 | 1.03e5 | 1.18e5 | 12020 | inactive |
| Vha16-4 + CG15614 | 1 | 98155 | 91430 | 1.39e5 | 1.51e5 | 7825 | inactive |
| AANATL2 (Arylalkylamine N-acetyltransferase-like 2) | 1 | 89055 | 66090 | 91775 | 87065 | 5565 | inactive |
| spirit (Serine Protease Immune Response Integrator) | 1 | 1.86e5 | 1.69e5 | 2.36e5 | 2.17e5 | 13865 | inactive |
| Egm (Enigma) | 1 | 1.57e5 | 1.55e5 | 1.75e5 | 1.56e5 | 13520 | inactive |
| CG18585 | 1 | 2.16e5 | 1.80e5 | 1.93e5 | 1.89e5 | 17130 | inactive |
| CG3534 | 1 | 2.36e5 | 2.65e5 | 2.26e5 | 2.32e5 | 20542 | inactive |
| Snx3 (Sorting nexin 3) | 1 | 98285 | 79395 | 82715 | 65290 | 4580 | inactive |
| ND-13A (NADH dehydrogenase (ubiquinone) 13 kDa A subunit) | 1 | 1.01e5 | 1.08e5 | 1.64e5 | 1.23e5 | 9035 | inactive |
| CG17177 | 1 | 1.89e5 | 2.40e5 | 3.92e5 | 4.08e5 | 11305 | active |
| Prosbeta5R2 (Proteasome beta5 subunit-related 2) | 1 | 64865 | 53950 | 61710 | 59600 | 6590 | inactive |
